Article PMC5701422

Assays:
[1] = molecular target: T1, EgMYB4 (His-EgMYB4) (UniProt A0A140GNA8); test: EMSA; conditions: LightShift Chemiluminescent EMSA Kit (Thermo) per manufacturer; biotin-labelled probes; pH and temperature not stated; recombinant protein; protein details: …; label: biotin
T1 sequence (looked up, limits assumed): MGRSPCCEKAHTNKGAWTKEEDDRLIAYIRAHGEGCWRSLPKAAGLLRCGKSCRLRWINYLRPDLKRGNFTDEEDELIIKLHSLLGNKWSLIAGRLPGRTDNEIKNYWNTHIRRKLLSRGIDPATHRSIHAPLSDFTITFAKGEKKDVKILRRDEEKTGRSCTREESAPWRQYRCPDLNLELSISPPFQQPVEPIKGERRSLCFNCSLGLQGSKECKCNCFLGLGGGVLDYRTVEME

[2] = molecular target: T1, EgMYB4 (His-EgMYB4); test: competition with a labelled probe; conditions: labeled complex disappeared, LightShift Chemiluminescent EMSA Kit (Thermo) per manufacturer, biotin-labelled probes, pH and temperature not stated, recombinant protein, protein details: …

Sequence | binding result [1] | other results
GTTATCCGTTCGCAACAACCCGCCATATCAACCAAG (double strand) [AC-V] | binds | –
GTTATCCGTTCGCAACAACCCGCCATATCAACCAAG (double strand) [AC-V unlabeled competitor] | – | binding result ([2]; 250-fold excess unlabeled AC-V): binds
GAGGCCCATAAACCAAACGTAGAAAAG (double strand) [AC-IV unlabeled competitor] | – | binding result ([2]; 250-fold excess unlabeled AC-IV): binds
GAGGCCCATAAGAAGGGAGTAGAAAAG (double strand) [AC-mIV] | no binding | –
GAGGCCCATAAACCAAACGTAGAAAAG (double strand) [AC-IV] | binds | –
GTTATCCGTTCGCGGAGGATCGCCATATCAACCAAG (double strand) [AC-mV] | no binding | –

The exact form of at least one protein or probe is not confirmed. For part of these data: No signal at the amounts used counts as a negative. Protein sequences can lack the tags named with them.
